Data: publication PMC4655355, “Structural insights into YfiR sequestering by YfiB in Pseudomonas aeruginosa PAO1” (Scientific Reports, 2015)
No constants are given. Whether binding was seen depends on the method and setting. Some entries that bind do so weakly or less than the wild type.

Protein sequences, listed by entry. Tags and fused reporters are not part of them. Lines headed by an entry give the natural chain unless they say otherwise; changes in a name come on top.
UniProt Q9I4L6: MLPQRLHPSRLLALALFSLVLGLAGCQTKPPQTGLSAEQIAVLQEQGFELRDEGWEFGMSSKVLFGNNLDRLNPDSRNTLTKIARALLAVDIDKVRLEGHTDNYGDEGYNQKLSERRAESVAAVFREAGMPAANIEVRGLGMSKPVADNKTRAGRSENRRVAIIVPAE

Legend:
[1] = target: YfiB(27–168) (Pseudomonas aeruginosa PAO1) (UniProt Q9I4L6); assay: crystal structure; YfiB(27–168) alone, 1.58 Å; 0.1 M HEPES pH 7.5, 2% PEG 400, 2.0 M ammonium sulfate, 293 K; both purified
[2] = target: YfiB(59–168) (Pseudomonas aeruginosa PAO1) (UniProt Q9I4L6); assay: crystal structure; YfiR(C71S)-YfiB(59–168) complex, 1.97 Å; proteins mixed 1:1; 0.1 M HEPES pH 7.5, 1.8 M ammonium sulfate, 293 K; both purified
[3] = target: YfiB(59–168) (Pseudomonas aeruginosa PAO1) (UniProt Q9I4L6); assay: AUC; YfiB-YfiR complex at 10 mg ml^-1 in 20 mM Tris-HCl, 200 mM NaCl; 42,000 rpm, 277 K, interference detection; SEDFIT; both purified
[4] = target: YfiB(59–168) (Pseudomonas aeruginosa PAO1) (UniProt Q9I4L6); assay: AUC; single purified proteins, 400 μL at 3 mg ml^-1 in 20 mM Tris-HCl, 200 mM NaCl; 42,000 rpm, 277 K, interference detection; SEDFIT; both purified

## YfiB(27–168) (from UniProt Q9I4L6 27-168) (domain or fragment)
[1]
  binding: binds weakly

## YfiB(59–168) (from UniProt Q9I4L6 59-168) (domain or fragment)
[2]
  binding: no binding
[3]
  binding: no binding (tested: 10 mg ml^-1 (complex sample))
[4]
  binding: no binding (tested: 3 mg ml^-1)
